PubChem BioAssay AID493246 | Drosophila RNAi Screening Center, 2011
Assay: 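Genome-wide search for dsRNAs that reduce cell number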 (primary screen). Cells: Drosophila Kc and S2R+ cells. Reagent: long dsRNA against Drosophila genes. Measured: 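Cell number per well after knock-down, printed as raw plate values; calls were based on per-plate z-scores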. Reading the numbers: Kc cell number and S2R+ cell number: higher = more cells remaining. Rule for the call: 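Counted as a hit if cell number falls by a z-score of at least 3 within its plate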.
The deposit covers about 21,000 reagents; shown is a random part of those with a known target gene and a result. In the full data, 429 (2%) were called active. 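Values are raw and not normalised between plates; calls rest on per-plate z-scores that were not deposited.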 Reagents against one gene are numbered here. A plus sign joins genes that one reagent is predicted to hit. Reagent sequences are not shown. The record does not give: the amount of reagent, the time to read-out.

{"gene knocked down": "Mgtor", "dsRNA no.": 1, "Kc cell number, rep 1": 1.24e6, "Kc cell number, rep 2": 1.35e6, "S2R+ cell number, rep 1": 1.01e6, "S2R+ cell number, rep 2": 9.50e5, "activity call": "inactive"}
{"gene knocked down": "CG4839", "dsRNA no.": 1, "Kc cell number, rep 1": 1.51e6, "Kc cell number, rep 2": 1.58e6, "S2R+ cell number, rep 1": 9.66e5, "S2R+ cell number, rep 2": 1.00e6, "activity call": "inactive"}
{"gene knocked down": "CG4839", "dsRNA no.": 2, "Kc cell number, rep 1": 1.51e6, "Kc cell number, rep 2": 1.57e6, "S2R+ cell number, rep 1": 1.19e6, "S2R+ cell number, rep 2": 1.35e6, "activity call": "inactive"}
{"gene knocked down": "tej", "dsRNA no.": 1, "Kc cell number, rep 1": 1.52e6, "Kc cell number, rep 2": 1.44e6, "S2R+ cell number, rep 1": 1.15e6, "S2R+ cell number, rep 2": 1.32e6, "activity call": "inactive"}
{"gene knocked down": "CG17261", "dsRNA no.": 1, "Kc cell number, rep 1": 1.52e6, "Kc cell number, rep 2": 1.38e6, "S2R+ cell number, rep 1": 1.00e6, "S2R+ cell number, rep 2": 1.12e6, "activity call": "inactive"}
{"gene knocked down": "dmrt93B", "dsRNA no.": 1, "Kc cell number, rep 1": 1.21e6, "Kc cell number, rep 2": 1.24e6, "S2R+ cell number, rep 1": 1.14e6, "S2R+ cell number, rep 2": 1.23e6, "activity call": "inactive"}
{"gene knocked down": "Sk2", "dsRNA no.": 1, "Kc cell number, rep 1": 1.06e6, "Kc cell number, rep 2": 1.28e6, "S2R+ cell number, rep 1": 1.14e6, "S2R+ cell number, rep 2": 6.59e5, "activity call": "inactive"}
{"gene knocked down": "CG13640", "dsRNA no.": 1, "Kc cell number, rep 1": 1.56e6, "Kc cell number, rep 2": 1.55e6, "S2R+ cell number, rep 1": 1.01e6, "S2R+ cell number, rep 2": 1.07e6, "activity call": "inactive"}

Laid out differently: results already given.
Sk2
- Kc cell number, rep 1: 1.06e6
- Kc cell number, rep 2: 1.28e6
- S2R+ cell number, rep 1: 1.14e6
- S2R+ cell number, rep 2: 6.59e5
- activity call: inactive

CG13640
- Kc cell number, rep 1: 1.56e6
- Kc cell number, rep 2: 1.55e6
- S2R+ cell number, rep 1: 1.01e6
- S2R+ cell number, rep 2: 1.07e6
- activity call: inactive

More entries:
{"gene knocked down": "kl-2", "dsRNA no.": 1, "Kc cell number, rep 1": 1.40e6, "Kc cell number, rep 2": 1.48e6, "S2R+ cell number, rep 1": 1.07e6, "S2R+ cell number, rep 2": 1.14e6, "activity call": "inactive"}
{"gene knocked down": "Tcs6 + PIG-P", "dsRNA no.": 1, "Kc cell number, rep 1": 1.12e6, "Kc cell number, rep 2": 1.51e6, "S2R+ cell number, rep 1": 1.10e6, "S2R+ cell number, rep 2": 1.04e6, "activity call": "inactive"}
{"gene knocked down": "Tcs6 + PIG-P", "dsRNA no.": 2, "Kc cell number, rep 1": 1.71e6, "Kc cell number, rep 2": 1.61e6, "S2R+ cell number, rep 1": 1.07e6, "S2R+ cell number, rep 2": 1.21e6, "activity call": "inactive"}
{"gene knocked down": "CG32305", "dsRNA no.": 1, "Kc cell number, rep 1": 1.42e6, "Kc cell number, rep 2": 1.31e6, "S2R+ cell number, rep 1": 9.92e5, "S2R+ cell number, rep 2": 1.25e6, "activity call": "inactive"}
